From patent publication US12338229B2, “Small molecule stimulators of steroid receptor coactivator-3 and methods of their use as cardioprotective and/or vascular regenerative agents” (BAYLOR COLLEGE OF MEDICINE, priority 2018, dated 2025)

System: cardiomyocytes of hearts post-MI
Assay: Total RNA-seq of cardiomyocytes post-MI
Assay type: in vivo, mice
Conditions: 12 weeks post-MI, vs control
Method: Isolation of cardiac cells. Mice were placed under the surgical plane of anesthesia before cervical dislocation. The hearts were removed and cells were isolated by Langendorff retrograde perfusion of calcium-free pH 7.4 Tyrodes solution (130 mM NaCl, […], 0.5 mM MgCl, 0.33 mM NaH2PO4, 0.25 mm HEPES, 22 mM glucose) with collagenase, 1 mg/mL for 15 minutes. The hearts were then removed from the apparatus, and finely minced in the same Tyrodes buffer with 15 mg/mL BSA before trituration with a glass pipette. Cardiomyocytes were then pelleted by differential centrifugation, 300 RPM for 3 minutes. […] Then, 0.1 mL of the mixture was removed for the “no stain control” for fluorescence-activated cell sorting (FACS). […] The cells were then pelleted and resuspended in 100 μL 0.4% FBS in PBS, counted, and passed through the 10× Genomics Chromium system.
Total RNA-Seq analysis. Sequencing reads were trimmed using the trimGalore software. Next, the reads were mapped using HISAT against the human genome build UCSC mm10, and quantified using StringTie against the Gencode gene model. […] Differentially expressed genes between tumor and normal samples were determined using a parametric t-test with p-value <0.05 and fold change of 1.25. […]

CCC1C/C(=C\c2cccnc2)C(=O)/C(=C/c2cccnc2)C1 (centres unmarked) [MCB-613]
downregulated genes in cardiomyocytes: 107 | upregulated genes in cardiomyocytes: 122
